# Data reported in the supplement of paper PMC7666118.
# By UniProt entry, the sequences of proteins in these tests, tags left out. Where a name states a change or a piece, a line headed by the entry shows the natural chain unless it says otherwise.
# UniProt Q6PK04: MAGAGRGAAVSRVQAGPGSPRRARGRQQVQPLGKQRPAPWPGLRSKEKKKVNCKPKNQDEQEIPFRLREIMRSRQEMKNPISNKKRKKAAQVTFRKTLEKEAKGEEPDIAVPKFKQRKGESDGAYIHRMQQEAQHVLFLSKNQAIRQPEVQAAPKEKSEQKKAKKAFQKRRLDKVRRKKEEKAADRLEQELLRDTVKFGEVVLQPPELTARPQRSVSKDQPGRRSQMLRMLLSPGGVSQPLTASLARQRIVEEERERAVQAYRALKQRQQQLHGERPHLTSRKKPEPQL
# UniProt Q5QGZ9: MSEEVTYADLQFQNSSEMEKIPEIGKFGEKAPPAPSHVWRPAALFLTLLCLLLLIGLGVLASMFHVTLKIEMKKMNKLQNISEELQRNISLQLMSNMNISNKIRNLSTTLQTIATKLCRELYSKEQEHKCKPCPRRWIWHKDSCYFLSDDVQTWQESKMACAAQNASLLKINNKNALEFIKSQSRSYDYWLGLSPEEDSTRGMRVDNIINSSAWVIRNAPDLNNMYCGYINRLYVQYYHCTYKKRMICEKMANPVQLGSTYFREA
# UniProt P60953, whole entry, looked up: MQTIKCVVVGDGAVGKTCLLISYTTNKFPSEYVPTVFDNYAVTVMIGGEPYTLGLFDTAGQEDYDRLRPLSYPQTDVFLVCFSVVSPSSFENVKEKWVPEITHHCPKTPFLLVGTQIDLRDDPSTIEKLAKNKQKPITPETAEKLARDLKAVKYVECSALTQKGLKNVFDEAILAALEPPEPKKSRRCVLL
# UniProt P49760, whole entry, looked up: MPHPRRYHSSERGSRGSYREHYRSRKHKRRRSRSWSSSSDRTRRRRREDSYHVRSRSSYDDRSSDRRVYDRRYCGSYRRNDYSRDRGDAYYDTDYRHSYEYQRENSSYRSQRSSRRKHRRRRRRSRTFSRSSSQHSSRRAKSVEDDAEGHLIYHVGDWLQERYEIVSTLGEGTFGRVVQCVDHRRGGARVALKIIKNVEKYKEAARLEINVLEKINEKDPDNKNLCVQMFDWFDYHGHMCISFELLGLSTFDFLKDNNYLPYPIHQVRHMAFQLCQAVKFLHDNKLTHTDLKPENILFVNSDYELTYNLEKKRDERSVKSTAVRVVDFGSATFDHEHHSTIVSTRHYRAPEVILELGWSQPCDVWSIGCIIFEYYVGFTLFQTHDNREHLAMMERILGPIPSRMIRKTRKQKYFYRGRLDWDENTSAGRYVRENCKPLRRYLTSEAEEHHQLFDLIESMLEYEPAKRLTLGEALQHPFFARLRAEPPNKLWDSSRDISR
# UniProt Q9Y2V7: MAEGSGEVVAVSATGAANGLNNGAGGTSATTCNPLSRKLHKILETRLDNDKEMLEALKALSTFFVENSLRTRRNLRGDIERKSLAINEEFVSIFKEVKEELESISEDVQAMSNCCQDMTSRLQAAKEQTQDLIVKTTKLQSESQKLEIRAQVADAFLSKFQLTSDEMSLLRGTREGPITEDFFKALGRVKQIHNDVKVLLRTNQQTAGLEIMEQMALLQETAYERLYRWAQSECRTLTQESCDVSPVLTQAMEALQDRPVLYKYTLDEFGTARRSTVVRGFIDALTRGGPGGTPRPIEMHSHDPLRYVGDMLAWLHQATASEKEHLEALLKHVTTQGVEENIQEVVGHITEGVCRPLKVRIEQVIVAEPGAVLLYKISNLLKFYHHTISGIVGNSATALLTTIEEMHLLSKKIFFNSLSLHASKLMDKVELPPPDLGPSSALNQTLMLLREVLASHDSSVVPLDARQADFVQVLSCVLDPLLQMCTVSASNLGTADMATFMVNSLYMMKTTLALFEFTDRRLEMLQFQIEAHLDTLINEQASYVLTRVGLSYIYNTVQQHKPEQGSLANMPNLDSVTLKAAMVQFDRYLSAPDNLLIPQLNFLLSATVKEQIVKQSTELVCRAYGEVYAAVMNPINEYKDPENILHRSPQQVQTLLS
# UniProt Q9BV73: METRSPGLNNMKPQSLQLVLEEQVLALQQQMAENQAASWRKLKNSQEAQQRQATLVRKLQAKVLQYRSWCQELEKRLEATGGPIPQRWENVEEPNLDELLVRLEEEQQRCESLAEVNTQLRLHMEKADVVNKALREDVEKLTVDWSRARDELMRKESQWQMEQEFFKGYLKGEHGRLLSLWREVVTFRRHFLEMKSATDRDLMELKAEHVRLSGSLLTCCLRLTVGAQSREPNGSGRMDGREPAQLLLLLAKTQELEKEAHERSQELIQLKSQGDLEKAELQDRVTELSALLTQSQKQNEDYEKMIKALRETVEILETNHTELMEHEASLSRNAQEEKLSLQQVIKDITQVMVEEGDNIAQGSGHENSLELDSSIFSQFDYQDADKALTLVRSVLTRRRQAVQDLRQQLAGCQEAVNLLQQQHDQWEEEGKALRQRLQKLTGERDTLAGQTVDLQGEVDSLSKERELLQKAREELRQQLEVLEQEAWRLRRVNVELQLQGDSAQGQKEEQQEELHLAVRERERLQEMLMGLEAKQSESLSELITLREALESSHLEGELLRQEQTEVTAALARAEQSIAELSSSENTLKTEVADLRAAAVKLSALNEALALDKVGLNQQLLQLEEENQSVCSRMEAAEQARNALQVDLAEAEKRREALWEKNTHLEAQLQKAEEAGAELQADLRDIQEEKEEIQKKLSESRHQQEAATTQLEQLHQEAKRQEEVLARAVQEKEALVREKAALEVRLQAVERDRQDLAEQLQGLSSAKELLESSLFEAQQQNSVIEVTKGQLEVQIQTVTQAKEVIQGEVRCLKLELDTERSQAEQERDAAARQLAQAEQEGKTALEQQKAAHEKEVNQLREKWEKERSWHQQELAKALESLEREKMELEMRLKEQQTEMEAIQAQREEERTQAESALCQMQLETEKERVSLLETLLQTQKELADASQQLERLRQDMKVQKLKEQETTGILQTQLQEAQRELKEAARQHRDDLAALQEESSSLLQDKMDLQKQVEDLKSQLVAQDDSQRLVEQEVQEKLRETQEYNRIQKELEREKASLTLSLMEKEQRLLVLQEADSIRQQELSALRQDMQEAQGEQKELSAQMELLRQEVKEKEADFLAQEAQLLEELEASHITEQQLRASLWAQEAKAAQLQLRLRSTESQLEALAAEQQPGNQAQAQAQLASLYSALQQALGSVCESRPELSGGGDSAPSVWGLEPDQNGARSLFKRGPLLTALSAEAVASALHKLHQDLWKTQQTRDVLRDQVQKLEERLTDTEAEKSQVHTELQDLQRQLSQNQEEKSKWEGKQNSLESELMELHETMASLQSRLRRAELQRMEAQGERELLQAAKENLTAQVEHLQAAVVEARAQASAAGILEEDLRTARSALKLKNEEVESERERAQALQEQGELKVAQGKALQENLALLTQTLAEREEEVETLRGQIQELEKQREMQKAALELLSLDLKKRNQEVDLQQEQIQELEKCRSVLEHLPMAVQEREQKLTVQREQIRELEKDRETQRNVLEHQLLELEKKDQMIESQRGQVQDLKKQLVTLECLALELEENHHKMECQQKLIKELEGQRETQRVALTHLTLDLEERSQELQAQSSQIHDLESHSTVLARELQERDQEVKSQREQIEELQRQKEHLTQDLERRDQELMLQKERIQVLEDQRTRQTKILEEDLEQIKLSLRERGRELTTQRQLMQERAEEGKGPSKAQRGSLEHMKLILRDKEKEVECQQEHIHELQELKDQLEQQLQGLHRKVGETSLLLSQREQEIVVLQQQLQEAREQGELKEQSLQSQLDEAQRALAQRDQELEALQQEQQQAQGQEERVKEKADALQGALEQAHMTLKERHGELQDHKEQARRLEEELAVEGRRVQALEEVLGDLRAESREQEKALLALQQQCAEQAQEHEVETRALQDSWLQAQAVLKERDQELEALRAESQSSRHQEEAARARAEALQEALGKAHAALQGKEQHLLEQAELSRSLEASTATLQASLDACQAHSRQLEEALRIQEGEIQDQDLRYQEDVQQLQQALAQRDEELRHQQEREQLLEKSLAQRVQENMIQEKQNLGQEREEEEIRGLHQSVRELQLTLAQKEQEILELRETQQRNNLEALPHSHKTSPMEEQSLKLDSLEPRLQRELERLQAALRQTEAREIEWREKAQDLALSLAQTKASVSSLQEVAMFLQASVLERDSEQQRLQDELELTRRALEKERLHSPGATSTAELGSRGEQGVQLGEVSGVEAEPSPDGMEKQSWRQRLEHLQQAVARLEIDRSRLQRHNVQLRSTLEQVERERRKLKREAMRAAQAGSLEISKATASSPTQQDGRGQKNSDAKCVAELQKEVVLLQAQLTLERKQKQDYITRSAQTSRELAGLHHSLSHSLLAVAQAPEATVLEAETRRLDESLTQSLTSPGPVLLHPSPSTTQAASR
# UniProt Q8IY22: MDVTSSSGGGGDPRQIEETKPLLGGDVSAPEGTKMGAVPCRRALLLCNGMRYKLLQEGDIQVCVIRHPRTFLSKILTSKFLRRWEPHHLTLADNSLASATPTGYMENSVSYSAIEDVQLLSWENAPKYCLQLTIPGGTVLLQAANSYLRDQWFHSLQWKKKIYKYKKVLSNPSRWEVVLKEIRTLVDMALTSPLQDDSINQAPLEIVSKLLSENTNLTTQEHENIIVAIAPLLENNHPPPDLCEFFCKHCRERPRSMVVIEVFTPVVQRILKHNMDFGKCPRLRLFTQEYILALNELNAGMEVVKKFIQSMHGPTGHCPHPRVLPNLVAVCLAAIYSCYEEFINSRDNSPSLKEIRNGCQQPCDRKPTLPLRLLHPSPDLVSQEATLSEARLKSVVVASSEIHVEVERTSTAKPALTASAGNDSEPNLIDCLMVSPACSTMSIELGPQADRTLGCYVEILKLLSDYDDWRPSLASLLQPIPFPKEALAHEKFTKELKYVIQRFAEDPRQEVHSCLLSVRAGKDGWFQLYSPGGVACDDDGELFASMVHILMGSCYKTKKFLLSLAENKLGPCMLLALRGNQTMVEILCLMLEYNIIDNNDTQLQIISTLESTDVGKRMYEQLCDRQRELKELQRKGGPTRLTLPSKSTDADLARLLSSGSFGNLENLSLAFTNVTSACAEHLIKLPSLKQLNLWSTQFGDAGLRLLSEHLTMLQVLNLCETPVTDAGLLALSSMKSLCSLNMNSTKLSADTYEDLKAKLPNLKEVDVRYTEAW
# UniProt Q8WUD6: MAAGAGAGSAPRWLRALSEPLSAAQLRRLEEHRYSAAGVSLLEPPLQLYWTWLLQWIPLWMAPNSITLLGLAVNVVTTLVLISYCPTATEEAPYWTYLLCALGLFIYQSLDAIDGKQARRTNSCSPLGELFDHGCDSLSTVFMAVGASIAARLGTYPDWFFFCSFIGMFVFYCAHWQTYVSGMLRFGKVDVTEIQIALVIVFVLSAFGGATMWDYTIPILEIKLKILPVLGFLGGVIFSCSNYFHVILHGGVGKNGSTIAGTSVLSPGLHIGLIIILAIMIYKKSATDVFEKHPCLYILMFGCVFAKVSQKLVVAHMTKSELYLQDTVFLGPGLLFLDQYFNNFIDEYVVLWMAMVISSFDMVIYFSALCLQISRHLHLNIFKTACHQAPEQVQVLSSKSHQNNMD
# UniProt Q96MX0: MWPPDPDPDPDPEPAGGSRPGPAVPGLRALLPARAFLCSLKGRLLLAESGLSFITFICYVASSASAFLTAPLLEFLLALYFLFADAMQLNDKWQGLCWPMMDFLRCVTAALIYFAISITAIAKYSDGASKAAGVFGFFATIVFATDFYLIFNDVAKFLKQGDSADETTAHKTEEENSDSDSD
# UniProt Q6UWW8: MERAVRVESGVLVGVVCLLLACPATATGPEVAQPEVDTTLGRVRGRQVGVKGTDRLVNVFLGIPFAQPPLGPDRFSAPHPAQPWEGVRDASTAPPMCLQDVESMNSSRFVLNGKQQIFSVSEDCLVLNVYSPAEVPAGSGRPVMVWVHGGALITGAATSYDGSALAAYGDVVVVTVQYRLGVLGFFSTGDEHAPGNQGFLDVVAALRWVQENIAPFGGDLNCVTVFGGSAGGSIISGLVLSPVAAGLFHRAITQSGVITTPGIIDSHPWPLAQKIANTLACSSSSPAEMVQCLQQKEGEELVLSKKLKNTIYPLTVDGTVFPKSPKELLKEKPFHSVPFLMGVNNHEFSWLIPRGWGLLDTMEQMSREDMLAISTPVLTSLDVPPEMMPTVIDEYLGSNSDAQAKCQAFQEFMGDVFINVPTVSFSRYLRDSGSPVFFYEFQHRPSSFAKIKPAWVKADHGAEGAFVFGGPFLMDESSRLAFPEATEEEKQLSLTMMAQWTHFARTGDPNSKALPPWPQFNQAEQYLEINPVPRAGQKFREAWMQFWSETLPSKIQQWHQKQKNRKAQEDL
# UniProt Q9H444: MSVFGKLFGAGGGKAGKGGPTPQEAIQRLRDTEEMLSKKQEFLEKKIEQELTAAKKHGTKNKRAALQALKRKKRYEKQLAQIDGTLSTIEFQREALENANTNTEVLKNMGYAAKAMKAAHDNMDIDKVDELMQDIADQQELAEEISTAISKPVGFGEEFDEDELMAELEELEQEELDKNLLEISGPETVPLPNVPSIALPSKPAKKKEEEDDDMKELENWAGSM
# This is one part of the list.
# Compound: COc1ccc(Cn2ccc3ccc(C(=O)NO)cc32)cc1
# Assay: dose-dependent thermal stabilisation call (2D-TPP, DLPTP, 10% FDR) (binary (1 = stabilised)); higher = stabilised by the compound
# Settings: system: HL-60 intact cells; concentration range 0.04-10 µM
row,Target,dose-dependent thermal stabilisation call
1,COG4 (UniProt Q9H9E3),inactive: 0
2,COG2 (UniProt Q14746),inactive: 0
3,CCDC137 (UniProt Q6PK04),inactive: 0
4,COASY (UniProt Q13057),inactive: 0
5,CDK5RAP1 (UniProt Q96SZ6),inactive: 0
6,CLEC12A (UniProt Q5QGZ9),inactive: 0
7,CD302 (UniProt Q8IX05),inactive: 0
8,CDC42 (UniProt P60953),inactive: 0
9,CCNB2 (UniProt O95067),inactive: 0
10,CEBPB (UniProt P17676),inactive: 0
11,CMC1 (UniProt Q7Z7K0),inactive: 0
12,CDKN2AIPNL (UniProt Q96HQ2),inactive: 0
13,CLK2 (UniProt P49760),inactive: 0
14,COG6 (UniProt Q9Y2V7),inactive: 0
15,CEP250 (UniProt Q9BV73),inactive: 0
16,CCDC25 (UniProt Q86WR0),inactive: 0
17,CLPX (UniProt O76031),inactive: 0
18,CCDC6 (UniProt Q16204),inactive: 0
19,CMIP (UniProt Q8IY22),inactive: 0

row,Target,dose-dependent thermal stabilisation call
1,CNOT10 (UniProt Q9H9A5),inactive: 0
2,CHCHD6 (UniProt Q9BRQ6),inactive: 0
3,CHAF1A (UniProt Q13111),inactive: 0
4,CHPT1 (UniProt Q8WUD6),inactive: 0
5,CIB1 (UniProt Q99828),inactive: 0
6,CEP57 (UniProt Q86XR8),inactive: 0
7,CHD4 (UniProt Q14839),inactive: 0
8,CDK7 (UniProt P50613),inactive: 0
9,CLPP (UniProt Q16740),active: 1
10,CLN6 (UniProt Q9NWW5),inactive: 0
11,CMTM3 (UniProt Q96MX0),inactive: 0
12,CNOT8 (UniProt Q9UFF9),inactive: 0
13,CES3 (UniProt Q6UWW8),inactive: 0
14,CDK5RAP2 (UniProt Q96SN8),inactive: 0
15,CHM (UniProt P24386),inactive: 0
16,CHMP4B (UniProt Q9H444),inactive: 0
17,CCNT1 (UniProt O60563),inactive: 0
18,CDC73 (UniProt Q6P1J9),inactive: 0

# Pulled one by one from the list above:
row,Target,dose-dependent thermal stabilisation call
17,CCNT1 (UniProt O60563),inactive: 0
11,CMTM3 (UniProt Q96MX0),inactive: 0
